Reference: PubChem BioAssay AID720533 (National Center for Advancing Translational Sciences (NCATS), 2013)
Only a part is listed here, and it is no random draw. Inconclusive results are not listed. A call without a number means that no potency is given here. Activity calls are given as the source filed them. Calls come from the whole dose curve; tested in HEK293 cells.

Assay: qHTS for Inhibitors of binding or entry into cells for Lassa Virus
Settings: Lassa virus pseudotyped entry inhibition, cell-based qHTS; series mostly up to 49.2 µM
Potency is the fitted concentration of half-maximal effect.

Compound | Potency
O=C1NC(=O)C(c2cccc([N+](=O)[O-])c2)=C1Nc1cc(Cl)c(O)c(Cl)c1 | inactive
O=C1NC(=O)c2c1c(-c1ccccc1)cc1[nH]c3ccc(O)cc3c21 | active: 3.16 µM
O=C(O)c1ccc(Oc2nccc(-c3c(-c4ccc(F)cc4)ncn3C3CCNCC3)n2)cc1 | inactive
